In paper PMC6351565:
Results are given in words; binding and its absence hold for the method and conditions named. In cells and extracts the contact can be indirect. Some entries that bind do so weakly or less than the wild type.

The chains behind the UniProt entries cited, without tags or fusion partners. Where a name states a change or a piece, a line headed by the entry shows the natural chain unless it says otherwise. A line that says so, or that is headed by a name, gives the form on record, which may keep a tag or linker.
WT-IRSp53-STREP (Q9UQB8-4, form named): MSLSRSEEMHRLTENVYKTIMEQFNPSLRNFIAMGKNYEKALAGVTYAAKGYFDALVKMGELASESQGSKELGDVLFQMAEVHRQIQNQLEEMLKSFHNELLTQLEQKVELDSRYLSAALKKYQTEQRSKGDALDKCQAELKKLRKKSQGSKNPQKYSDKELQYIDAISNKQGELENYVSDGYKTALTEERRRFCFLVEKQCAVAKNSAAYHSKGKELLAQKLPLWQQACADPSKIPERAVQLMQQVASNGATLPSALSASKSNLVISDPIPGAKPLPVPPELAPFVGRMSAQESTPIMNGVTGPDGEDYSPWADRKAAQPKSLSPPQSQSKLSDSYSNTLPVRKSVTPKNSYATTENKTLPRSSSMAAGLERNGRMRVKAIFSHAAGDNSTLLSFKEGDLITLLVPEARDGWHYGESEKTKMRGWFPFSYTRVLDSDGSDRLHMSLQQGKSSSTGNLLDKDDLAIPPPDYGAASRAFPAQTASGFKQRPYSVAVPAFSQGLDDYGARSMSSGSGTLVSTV

Biological target: M2345-FLAG (human (from the printed UniProt entry)) (UniProt Q9UQB8)
Experiment: pull-down; dual tag (FLAG, STREP) purification; wild-type and M2345 subunits expressed in HEK293T cells from a single vector with an IRES between the two coding sequences

binding: binds
Substance: WT-IRSp53-STREP (from UniProt Q9UQB8-4 1-521)
